Measurements published in publication PMC7053343, “Small molecule NSC1892 targets the CUL4A/4B-DDB1 interactions and causes impairment of CRL4^DCAF4 E3 ligases to inhibit colorectal cancer cell growth” (International Journal of Biological Sciences, 2020).
Results are given in words; binding and its absence hold for the method and conditions named. Binding seen in cells or lysates may run through a third protein. Some results given as binding are weak or reduced against the parent protein; the word gives no strength.

The chains behind the UniProt entries cited, without tags or fusion partners.
UniProt Q13620: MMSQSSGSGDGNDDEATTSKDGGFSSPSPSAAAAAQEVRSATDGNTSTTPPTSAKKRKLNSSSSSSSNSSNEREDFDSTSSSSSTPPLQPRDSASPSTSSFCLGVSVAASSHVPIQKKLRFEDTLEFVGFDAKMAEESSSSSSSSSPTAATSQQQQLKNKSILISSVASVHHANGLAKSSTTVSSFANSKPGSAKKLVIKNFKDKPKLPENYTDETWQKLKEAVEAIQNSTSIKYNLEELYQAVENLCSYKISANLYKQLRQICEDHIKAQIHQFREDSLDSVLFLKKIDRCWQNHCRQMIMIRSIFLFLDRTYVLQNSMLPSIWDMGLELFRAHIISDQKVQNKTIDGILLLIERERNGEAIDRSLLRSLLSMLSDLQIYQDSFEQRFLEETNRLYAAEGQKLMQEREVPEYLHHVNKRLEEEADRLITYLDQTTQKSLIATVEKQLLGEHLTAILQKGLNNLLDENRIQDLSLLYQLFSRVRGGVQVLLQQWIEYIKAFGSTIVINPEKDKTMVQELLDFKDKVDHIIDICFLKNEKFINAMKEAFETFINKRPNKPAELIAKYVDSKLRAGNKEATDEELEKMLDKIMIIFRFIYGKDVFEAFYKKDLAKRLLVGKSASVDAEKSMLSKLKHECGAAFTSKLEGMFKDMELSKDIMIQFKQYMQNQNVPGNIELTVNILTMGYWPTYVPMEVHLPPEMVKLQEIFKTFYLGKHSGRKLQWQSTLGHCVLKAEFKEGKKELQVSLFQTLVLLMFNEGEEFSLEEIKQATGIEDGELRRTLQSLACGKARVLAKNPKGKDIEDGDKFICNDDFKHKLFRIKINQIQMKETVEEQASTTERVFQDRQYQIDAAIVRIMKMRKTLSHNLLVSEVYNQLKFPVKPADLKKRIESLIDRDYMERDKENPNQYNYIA
UniProt Q13619: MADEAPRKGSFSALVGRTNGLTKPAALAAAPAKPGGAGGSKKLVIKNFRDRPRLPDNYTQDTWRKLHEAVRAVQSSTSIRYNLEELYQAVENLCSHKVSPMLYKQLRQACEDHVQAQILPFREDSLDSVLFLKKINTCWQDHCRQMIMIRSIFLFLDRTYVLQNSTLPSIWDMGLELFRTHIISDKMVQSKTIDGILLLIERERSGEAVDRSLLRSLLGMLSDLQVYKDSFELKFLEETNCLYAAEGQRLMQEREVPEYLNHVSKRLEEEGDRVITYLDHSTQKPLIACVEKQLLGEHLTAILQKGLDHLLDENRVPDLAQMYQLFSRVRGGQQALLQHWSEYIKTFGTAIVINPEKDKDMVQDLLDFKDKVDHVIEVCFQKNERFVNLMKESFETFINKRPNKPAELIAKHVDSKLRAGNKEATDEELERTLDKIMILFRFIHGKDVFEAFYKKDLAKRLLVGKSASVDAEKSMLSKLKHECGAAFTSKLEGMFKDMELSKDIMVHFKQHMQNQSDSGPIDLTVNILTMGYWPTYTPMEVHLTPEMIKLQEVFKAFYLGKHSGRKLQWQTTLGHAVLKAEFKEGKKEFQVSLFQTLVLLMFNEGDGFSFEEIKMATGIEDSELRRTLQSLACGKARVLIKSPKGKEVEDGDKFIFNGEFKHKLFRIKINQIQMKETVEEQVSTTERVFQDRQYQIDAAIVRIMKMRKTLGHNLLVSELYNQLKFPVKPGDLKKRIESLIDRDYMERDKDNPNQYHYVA
UniProt Q16531: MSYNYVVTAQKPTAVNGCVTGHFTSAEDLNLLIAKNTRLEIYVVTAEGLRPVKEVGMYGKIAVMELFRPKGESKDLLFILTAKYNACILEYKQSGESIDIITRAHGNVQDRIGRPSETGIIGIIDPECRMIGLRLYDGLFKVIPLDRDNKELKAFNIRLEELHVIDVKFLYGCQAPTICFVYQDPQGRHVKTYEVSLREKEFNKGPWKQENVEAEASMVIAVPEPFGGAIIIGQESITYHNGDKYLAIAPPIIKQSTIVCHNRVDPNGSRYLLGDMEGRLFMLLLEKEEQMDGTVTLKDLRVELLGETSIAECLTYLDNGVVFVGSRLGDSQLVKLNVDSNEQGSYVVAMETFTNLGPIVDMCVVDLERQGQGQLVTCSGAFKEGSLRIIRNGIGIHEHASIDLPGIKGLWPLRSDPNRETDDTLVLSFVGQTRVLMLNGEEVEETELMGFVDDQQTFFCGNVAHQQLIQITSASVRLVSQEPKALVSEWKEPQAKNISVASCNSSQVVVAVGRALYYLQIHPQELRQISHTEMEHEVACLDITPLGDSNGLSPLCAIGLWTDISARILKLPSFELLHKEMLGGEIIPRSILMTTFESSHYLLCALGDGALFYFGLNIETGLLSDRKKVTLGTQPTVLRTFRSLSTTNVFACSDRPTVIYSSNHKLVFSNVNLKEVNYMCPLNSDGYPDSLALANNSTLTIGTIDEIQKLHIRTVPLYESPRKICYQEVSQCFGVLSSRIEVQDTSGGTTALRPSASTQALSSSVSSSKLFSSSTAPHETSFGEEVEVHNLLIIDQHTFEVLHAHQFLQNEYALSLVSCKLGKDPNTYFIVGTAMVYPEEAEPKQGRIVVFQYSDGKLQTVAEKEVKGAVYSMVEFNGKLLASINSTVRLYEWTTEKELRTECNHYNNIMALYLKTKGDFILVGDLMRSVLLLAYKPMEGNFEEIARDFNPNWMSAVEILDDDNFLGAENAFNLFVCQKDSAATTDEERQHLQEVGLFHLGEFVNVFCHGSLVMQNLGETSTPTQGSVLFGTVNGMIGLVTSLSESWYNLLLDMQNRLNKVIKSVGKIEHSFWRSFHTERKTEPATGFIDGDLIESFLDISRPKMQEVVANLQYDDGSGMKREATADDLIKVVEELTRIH

Experiments:
[1] = target: CUL4B (human (endogenous in HCT-116)) (UniProt Q13620); test: co-IP; HCT-116 cells treated with 0, 0.2, 2 or 20 μM NSC1892 for 6 hrs, lysed in RIPA buffer; immunoprecipitation of endogenous proteins with anti-CUL4A or anti-CUL4B and protein A agarose; immunoblot
[2] = target: CUL4A (human (endogenous in HCT-116)) (UniProt Q13619); test: as above

Row | Molecule | binding [1] | binding [2]
1 | CUL4A (from UniProt Q13619 1-759) | binds | 
2 | CUL4B (from UniProt Q13620 1-913) |  | binds
3 | DDB1 (from UniProt Q16531 1-1140) | binds | 
4 | DCAF4 (protein, UniProt Q8WV16 1-495) MNKSRWQSRRRHGRRSHQQNPWFRLRDSEDRSDSRAAQPAHDSGHGDDESPSTSSGTAGTSSVPELPGFYFDPEKKRYFRLLPGHNNCNPLTKESIRQKEMESKRLRLLQEEDRRKKIARMGFNASSMLRKSQLGFLNVTNYCHLAHELRLSCMERKKVQIRSMDPSALASDRFNLILADTNSDRLFTVNDVKVGGSKYGIINLQSLKTPTLKVFMHENLYFTNRKVNSVCWASLNHLDSHILLCLMGLAETPGCATLLPASLFVNSHPGIDRPGMLCSFRIPGAWSCAWSLNIQANNCFSTGLSRRVLLTNVVTGHRQSFGTNSDVLAQQFALMAPLLFNGCRSGEIFAIDLRCGNQGKGWKATRLFHDSAVTSVRILQDEQYLMASDMAGKIKLWDLRTTKCVRQYEGHVNEYAYLPLHVHEEEGILVAVGQDCYTRIWSLHDARLLRTIPSPYPASKADIPSVAFSSRLGGSRGAPGLLMAVGQDLYCYSYS | binds | binds
